# Assay results from PubChem BioAssay AID540256 (National Center for Advancing Translational Sciences (NCATS), 2011).
# About 3,700 (1.2%) of roughly 300,000 compounds were called active. The inconclusive results got no clear call from the source; some entries with a clear call stand among them for comparison. Calls follow the shape of the full dose curve; tested in HEK293 cells. A potency beside an inconclusive call is a rough fit, not a confirmed value.
# Experiment: qHTS for Inhibitors of binding or entry into cells for Lassa Virus; also: nearly all actives have a fitted effect of over 50% in size
# Conditions: Lassa virus pseudotype entry inhibition, cell reporter; series mostly up to 37.9 µM
# Potency is read from the fitted curve at half-maximal effect.
row,Structure (SMILES),Potency
1,Cc1ccccc1OCc1nc2ccccc2n1Cc1ccccc1Cl,inactive
2,Cc1cc(N2CCOCC2)ccc1/C=C1/SC(=O)NC1=O,"inconclusive: 35.5 µM [activator, partial curve, poor fit]"
3,CC(C)C(C(=O)NCc1ccco1)N(C(=O)CNS(=O)(=O)c1ccccc1)c1ccccc1 (stereo unspecified),"inconclusive: 7.08 µM [inhibitor, partial curve, poor fit]"
4,COc1ccc(N(C(=O)c2ccccc2C)S(=O)(=O)c2cccs2)cc1,"inconclusive: 0.82 µM [inhibitor, full curve, poor fit]"
5,NC(=O)CSc1oc(-c2ccco2)nc1S(=O)(=O)c1ccc(F)cc1,"inconclusive: 35.5 µM [inhibitor, single point]"
6,COc1ccc(C(=O)C2CCN(C(=O)c3ccc(C)cc3)CC2)cc1,"inconclusive: 20.6 µM [inhibitor, partial curve]"
7,COC(CNS(=O)(=O)c1ccc(S(=O)(=O)N2CCCC2)cc1)OC,"inconclusive: 1.26 µM [inhibitor, single point]"
8,COc1ccccc1NC(C)C(=O)Nc1ccc(C(C)=O)cc1 (stereo unspecified),"inconclusive: 0.651 µM [inhibitor, partial curve, poor fit]"
9,Cc1cc(=O)n2[nH]c(C)c(-c3ccc(Cl)cc3)c2n1,"inconclusive: 29.1 µM [inhibitor, single point]"
10,CCCn1cnc2cc(NCc3ccccc3OCC)ccc21,inactive
11,CCCCNc1nc2ccccc2nc1Cl,"inconclusive: 1 µM [activator, full curve, poor fit]"
12,COc1cc(C(=O)OCC(=O)Nc2ccc(OC(F)F)cc2)cc(OC)c1OC,"inconclusive: 11.2 µM [inhibitor, partial curve, poor fit]"
13,CC(=O)c1cccc(NS(=O)(=O)c2cc3c(cc2C)NC(=O)CO3)c1,inactive
14,CC(=O)Oc1ccc(OC(C)=O)c(SCCCCCN2CCOCC2)c1,"inconclusive: 16.4 µM [inhibitor, single point]"
15,CCCNC(=O)Cn1c(=O)c2cccn2c2cccnc21,inactive
16,CCOc1cc(CNCCCN2CCOCC2)cc(Br)c1OCc1ccccc1Cl,"inconclusive: 10 µM [inhibitor, partial curve, poor fit]"
17,COc1cc(/C=N/Nc2nn3cnnc3c3ccccc23)ccc1O,"inconclusive: 29.1 µM [inhibitor, single point]"
18,CCC(N=c1cc(-c2ccc(OC)c(OC)c2)oc2ccc(C)cc12)C(=O)O (stereo unspecified),inactive
19,O=[N+]([O-])c1cc(S(=O)(=O)N2CCOCC2)ccc1N1CCNCC1,inactive
20,COc1ccc(CN(C#N)c2nc(SC)nc(N(C)C)n2)cc1,"inconclusive: 1.26 µM [activator, single point]"
21,Cc1cccc(-c2n[nH]c(=S)n2Cc2ccccc2)c1,"inconclusive: 20 µM [activator, partial curve, poor fit]"
22,Cc1cccc(N2CCN(C(c3ccncc3)c3nnnn3C(C)(C)C)CC2)c1C (stereo unspecified),"inconclusive: 10 µM [inhibitor, partial curve, poor fit]"

row,Structure (SMILES),Potency
1,COC1C(C)OC(OC2CC(C)(O)Cc3cc4c(c(O)c32)C(=O)c2c(O)cc3c(c2C4=O)OC2OC3(C)C(O)C(N(C)C)C2O)C(OC)C1(C)OC (stereo unspecified),"inconclusive: 7.94 µM [inhibitor, partial curve]"
2,CCn1c(O)c(C(=O)CC2NCCc3ccccc32)c(=O)n(CC)c1=S (stereo unspecified),"inconclusive: 20 µM [inhibitor, partial curve, poor fit]"
3,O=C(Nc1cccc([N+](=O)[O-])c1)C1CC(=O)N(C2CCCCC2)C1 (stereo unspecified),inactive
4,CC(Sc1n[nH]c(N)n1)C(=O)C12CC3CC(CC(C3)C1)C2 (stereo unspecified),"inconclusive: 0.447 µM [inhibitor, single point]"
5,O=C(NCCCn1ccnc1)c1cc(-c2cccnc2)nc2ccc(Br)cc12,"inconclusive: 35.5 µM [inhibitor, single point]"
6,COCCn1nnnc1C(c1cccs1)N1CCN(c2cccc(C(F)(F)F)c2)CC1 (stereo unspecified),"inconclusive: 14.6 µM [inhibitor, partial curve]"
7,O=C(CSc1nc(-c2ccco2)cc(C(F)(F)F)n1)Nc1ccccc1C(F)(F)F,"inconclusive: 9.2 µM [inhibitor, partial curve, poor fit]"
8,Cc1[nH]nc(-c2ccc(O)cc2O)c1-c1nc2ccccc2s1,"inconclusive: 35.5 µM [inhibitor, partial curve, poor fit]"
9,Cc1ccc(C)c(N2CCN(C(=O)CCCCn3c(=O)[nH]c4ccccc4c3=O)CC2)c1,"inconclusive: 10.3 µM [inhibitor, partial curve]"
10,Cc1ccc(NC(=O)CSc2ccc(-c3cccnc3)nn2)cc1,"inconclusive: 35.5 µM [inhibitor, single point]"
11,Cc1ccccc1Cn1nc(C)c(NC(=O)c2noc3c2CCCC3)c1C,"inconclusive: 29.1 µM [inhibitor, single point]"
12,COc1ccc(CN(C)C(=S)Nc2ccc(OC(F)F)cc2)cc1,"inconclusive: 35.5 µM [inhibitor, partial curve, poor fit]"
13,Cc1cccc(C)c1NC(=O)c1ccc([N+](=O)[O-])s1,inactive
14,COCCNC(=O)c1nn(-c2ccc(C)cc2)c(=O)n(C)c1=O,"inconclusive: 1.26 µM [activator, full curve, poor fit]"
15,CSc1nc(Nc2ccc(Cl)cc2)c(C#N)c(=O)[nH]1,inactive
16,O=C(Nc1ccc2c(c1)OCCO2)c1ccc(Br)s1,active: 5.62 µM
17,COc1c(Cl)cc(Cl)cc1/C=C/C(=O)c1ccc(NC(=O)c2cccs2)cc1,"inconclusive: 20 µM [inhibitor, single point]"
18,Cc1ccc(Cl)cc1N1CCN(C(=O)c2ccc(CS(=O)c3ccccc3)o2)CC1 (stereo unspecified),"inconclusive: 20 µM [inhibitor, partial curve, poor fit]"
19,C/C(=N\NC(=O)c1nnn(-c2nonc2N)c1-c1ccc2c(c1)OCO2)c1ccc(F)cc1,"inconclusive: 1.41 µM [inhibitor, full curve]"
20,COc1ccc(/C=N/NC(=O)c2cccc3ccccc23)c(OC)c1OC,"inconclusive: 12.6 µM [inhibitor, partial curve, poor fit]"
21,Cc1cc(C)cc(Nc2cc(C(=O)NCCCN(C)C3CCCCC3)c3ccccc3n2)c1,inactive
22,COc1ccc(NS(=O)(=O)c2ccc(-c3cnc(C4CC4)o3)cc2)cc1Cl,"inconclusive: 35.5 µM [inhibitor, single point]"

# In the list so far, these contain a nitro group on carbon.
row,Structure (SMILES),Potency
19,O=[N+]([O-])c1cc(S(=O)(=O)N2CCOCC2)ccc1N1CCNCC1,inactive
3,O=C(Nc1cccc([N+](=O)[O-])c1)C1CC(=O)N(C2CCCCC2)C1 (stereo unspecified),inactive
13,Cc1cccc(C)c1NC(=O)c1ccc([N+](=O)[O-])s1,inactive

# (list continues)

row,Structure (SMILES),Potency
1,Cc1ccc(C(=O)Nc2c(-c3cccs3)c(=O)c3ccccc3n2C)cc1,"inconclusive: 0.082 µM [activator, full curve, poor fit]"
2,Cc1ccc(C(=O)NC2CC2)cc1-c1ccc2[nH]ncc2c1,"inconclusive: 8.88 µM [inhibitor, partial curve, poor fit]"
3,COc1ccc(/C=C2\SC(=O)N(CCC(=O)N3CCCCC3CCO)C2=O)cc1 (stereo unspecified),inactive
4,c1ccc(-n2nnc3c(N4CCOCC4)ncnc32)cc1,active: 5.17 µM
5,COc1ccc(C(=O)NCc2ccc3c(c2)CCN3C(=O)c2ccccc2)cc1,"inconclusive: 35.5 µM [inhibitor, single point]"
6,O=C(O)CCCC[C@@H]1CCSS1,"inconclusive: 5.8 µM [activator, partial curve, poor fit]"
7,CC1(c2ccc3noc(-c4ccccc4)c3c2)OCCO1,"inconclusive: 35.5 µM [inhibitor, single point]"
8,COCCCNC(=O)c1sc2nc(C)c(C(=O)Nc3ccc(C)cc3C)c(-c3ccccc3Cl)c2c1N,"inconclusive: 10 µM [inhibitor, partial curve, poor fit]"
9,COc1ccc(S(=O)(=O)O)cc1P(=O)(c1ccccc1)c1ccccc1,"inconclusive: 2.51 µM [inhibitor, partial curve, poor fit]"
10,COc1ccc(C2c3ccc4ccccc4c3Oc3ncn(CCCO)c(=N)c32)cc1 (stereo unspecified),active: 11.2 µM
11,COc1ccc(-c2cnc(OC(C)(C)C)nc2OC(C)(C)C)cc1OC,"inconclusive: 32.6 µM [inhibitor, single point]"
12,COc1ccc(C(=O)Nc2ccc(CN3CCOCC3)cc2)cc1,"inconclusive: 20.6 µM [activator, single point]"
13,COc1cccc(/C=N/NC(=O)c2cnccn2)c1,"inconclusive: 11.2 µM [activator, single point]"
14,CCOc1ccc(N(C)S(=O)(=O)c2ccc(C)c(C(=O)N3CCN(Cc4ccc5c(c4)OCO5)CC3)c2)cc1,"inconclusive: 7.08 µM [inhibitor, partial curve]"
15,Cn1c(SCc2cc(=O)c3cc(Cl)ccc3[nH]2)nnc1-c1ccccc1,inactive
16,COc1ccc(-c2csc(NC(=O)CSCc3c(C)noc3C)n2)cc1OC,active: 11.2 µM
17,Cc1ccc2c(c1)N(CCC(=O)NC(C)C)C(=O)CO2,inactive
18,COc1ccc(-n2ncc(C(C)NS(=O)(=O)c3ccc(C)s3)c2C)cc1 (stereo unspecified),"inconclusive: 2.51 µM [inhibitor, full curve, poor fit]"
19,NS(=O)(=O)c1ccc(CCNC(=O)CNC(=O)c2ccc(F)cc2)cc1,inactive
20,COC(=O)c1c(NC(=O)/C=C/c2ccco2)sc2c1CCC2,inactive
21,CCCCCCCCC(=O)N/N=C(\C)c1ccc(O)cc1O,"inconclusive: 18.4 µM [inhibitor, partial curve, poor fit]"
22,Cc1ccc(-c2nnc3ccc(SCC(=O)N4CCCc5ccccc54)nn23)cc1,"inconclusive: 0.731 µM [inhibitor, full curve, poor fit]"
